# Measured values: PubChem BioAssay AID1347426 (Functional Genomics Laboratory (NCATS/FGL), 2020)
# Among all 31,000 sequences or so, about 1,400 (4.5%) were called active.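 Rule for the calls: active = median seed-adjusted z-score above 1 or below -1; inactive = the rest.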 The list shows a part of the results.
# Assay: Novel Modifiers of Survival Motor Neuron (SMN) Protein: Gene Identification via Genome-wide siRNA Screen;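 note: luminescence tracks full-length SMN protein made from the SMN2 reporter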
# Conditions: HEK293T SMN2-luciferase reporter, siRNA knockdown, 72 h; actives lie on both sides
# Method in brief: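 Luciferase signal, proportional to full-length SMN made from an SMN2 cDNA reporter in stable HEK293T cells, was read 72 h after siRNA reverse transfection. Values were expressed as MAD scores after non-targeting-control normalization and log10 conversion; seed analysis flagged off-targets.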
row,Sequence,median seed-adjusted z-score
1,GGAAUAAAUUGGUCUGAAATT against APOL5,inactive: -0.209
2,GCAUCAGUCAGUUGCAAAATT against CYP7B1,inactive: 0.598
3,CGGCAAAGAGUGGUCGGAATT against HOXA10,inactive: -0.112
4,CCAGCACGGGAAUUCUAGATT against SGSH,inactive: 0.383
5,CACUCCAAGUAGCACAUUUTT against CES2,inactive: -0.47
6,GCAAAGACCCAAACCUACATT against SORBS2,inactive: 0.0391
7,GGCUUCUUCUAUUCAAUUUTT against BCL6B,inactive: 0
8,GGACCUUAUUUAUCAGCUUTT against NCOA4,inactive: -0.0638
9,AAAUGGUAAUUGUUGCUAATT against THBD,inactive: -0.16
10,CAUGCACACGUGAUCCAGATT against ZDHHC11,inactive: -0.098
11,AGAAUUCCAUCAACCUGAUTT against ADAMTS8,inactive: 0.115
12,GUCUACUACUGGUCGGAGATT against GABRD,inactive: 0.428
13,GUGAUACAGUGAUAAGUCATT against PTGR2,inactive: 0.14
14,CCUCGAUAUUUUAACCUUUTT against EID2,active: -1.04
15,CACUGUCCCAAUUCUAAUUTT against GDA,inactive: -0.406
16,GGAUUUUCCGAAUUCUAAATT against KCNS3,inactive: 0.103
17,GCUUGCUAAAGGAACGGAATT against NEK2,inactive: -0.276
18,GGACCAUGCUUGCUUCGUUTT against LARP6,inactive: 0.0335
19,GGAGUUUGAGGAGCUCAUUTT against SDF4,inactive: -0.422
20,GCGAGACCAAGUACCGUAATT against NRAP,inactive: -0.205
21,GCCUUAAAGAGUCUCGACATT against SRrp35,inactive: -0.0574
22,GCUAUUUAAGAGUUUCAGATT against RCAN2,inactive: -0.185

row,Sequence,median seed-adjusted z-score
1,CAUUCCGUCUUGGUGAUUATT against RANBP6,inactive: -0.696
2,GCUGCUGCCUAUGCUGCUATT against SDSL,inactive: 0
3,GAACUUAAUAGUACCCUUUTT against NR0B1,inactive: -0.526
4,GCAUUCUAUUAGACUAUGATT against FSD2,inactive: 0.359
5,CCUCAAUUGUUGCUUAUCUTT against ZDHHC17,inactive: 0.526
6,GCCUUCUUCUUAUGCAAGATT against ACTL6B,inactive: 0.0703
7,CCACGUCUCUGGAAUCAUUTT against POLH,inactive: -0.446
8,CCAGGUUUAUGUAGAAGUUTT against NMI,inactive: 0.982
9,GCCUUACCCUGGACUAUGATT against LRP4,inactive: -0.00798
10,AGAUUACGUUGAAGAACGATT against GNGT1,inactive: -0.0382
11,GACGGAAAGACUUACGUUATT against EIF2AK2,inactive: 0.419
12,CUCUAGACUGGGAAACUAATT against ZNF2,inactive: -0.119
13,GGAGUACCCUGAGGCUAUATT against RELA,inactive: -0.646
14,CCAGUUGCAUAAUUAUGGATT against HOXA5,inactive: 0
15,GGAAGCUCAUGUACCUGCATT against OBP2B,inactive: -0.642
16,CUUUGAUACUGAUUCUCUATT against HTR1E,inactive: 0.00535
17,CUAUGGAAGUAUUUCCGAATT against DGAT2L6,inactive: -0.528
18,AGCACGAGCUAGUCCCUGATT against POLR2E,active: -1.25
19,GGAGGUACUUUGGAUGACATT against BBX,inactive: -0.0824
20,CCACCUAGAUGAUAAUGAATT against ACTR5,inactive: -0.376
21,GACUGGAUCCAAAAGAACATT against CHST3,inactive: 0.319
22,ACUGGACAGUGGUAUCAGATT against UBASH3A,active: -1.1

# Part of the list above, with tabs.
row	Sequence	median seed-adjusted z-score
8	CCAGGUUUAUGUAGAAGUUTT against NMI	inactive: 0.982
10	AGAUUACGUUGAAGAACGATT against GNGT1	inactive: -0.0382
17	CUAUGGAAGUAUUUCCGAATT against DGAT2L6	inactive: -0.528
19	GGAGGUACUUUGGAUGACATT against BBX	inactive: -0.0824

# Next results follow.

row,Sequence,median seed-adjusted z-score
1,GGCUAAGGCUAUGGACAAATT against CYP4B1,inactive: -0.663
2,GAGGAUCACUUGUCCAAAUTT against IL1RAP,inactive: -0.23
3,GGAUGACGUGAUACUCAAUTT against TTLL4,inactive: -0.256
4,GUGUGUUCACAAAAUGAAATT against MAF,inactive: -0.418
5,GCACGAGAGCAGAAGGAAATT against RCAN3,inactive: 0.544
6,GAGUCACAGUCGUUAUUCUTT against CNOT4,inactive: -0.116
7,GAGAAUAACUAAACAUUGUTT against MBNL2,inactive: -0.675
8,AAACAGACAGAGAUAAGUATT against UBE2D3,active: 1.62
9,GGUAUAUUUCCAUACUGAUTT against NFS1,inactive: 0.141
10,GCAGUACUCUGCUACCUGATT against IL22RA1,active: -1.14
11,CACGGAAGGUUGUGAUGAATT against TLR5,inactive: 0
12,GGAUCAAGCUGAUGAACGATT against ABCC1,inactive: 0
13,GGACGGAAGAUUUUCGUAUTT against SR140,active: 1.16
14,GGAACUCCCUCGAAAGGCUTT against GALNTL1,inactive: -0.234
15,CGGACACGGCUAUAGAGGATT against NUBP1,inactive: -0.0975
16,CAUGGAAGCUGACCACAUATT against PFAS,inactive: 0.0344
17,CGAGUAUGAUCCUACCAGATT against ESR1,inactive: -0.408
18,GAUAUGUAUUCAUACUAAUTT against SNX10,inactive: 0.391
19,CAGAAGGAAUACUAACAGATT against DIS3L2,inactive: -0.265
20,CCAAGGACCAGGAGAUUCATT against HOMER3,inactive: 0.148
21,GAACGACUGAGACGGCUAATT against SNAPIN,inactive: -0.132
22,UCACCACACUUAAGGAGAATT against BIK,inactive: 0.0492

row,Sequence,median seed-adjusted z-score
1,GGAGGGCUACUAUGAGUUUTT against CAMK1G,inactive: -0.358
2,CCUUCAAGGUCAACGUGUATT against KCNH3,inactive: -0.509
3,CGCCCACCUUUAUCCUCUATT against TNK1,inactive: -0.727
4,GCGCAUCACUGACUGCUAUTT against CD248,inactive: -0.0191
5,GAACAGAUCCUAUGAGCGATT against PGCP,inactive: 0.145
6,CACAGAUUCGAGAAAUUCATT against SF3B1,active: -3.65
7,GCAUUGAUCCUCAGAGUAATT against PTPRU,inactive: 0
8,GGAUUAAACAGAUCAGAGATT against PDSS2,inactive: 0.111
9,CCCGUAUCAUGAUCCACCATT against CLPP,inactive: -0.118
10,GGAAGUGUUUGUAAUCCCATT against ALPP,inactive: 0
11,AGCAACUUCUCUACCCUGATT against EPHX1,inactive: 0
12,GGUCACAGGUUUUAUGGGATT against CHST13,inactive: -0.447
13,ACGUGAUCCAAAUAUCCAATT against LEP,inactive: -0.143
14,GAUCAUAACUGGAAUAAGATT against HIATL1,inactive: 0.327
15,GGGUAAGACUAAAUCUGUATT against CRH,inactive: 0.64
16,GCCUUUACAAGGUCCACAATT against ZNF595,inactive: 0.102
17,GCUAUUCACCGUCAGCAUATT against MLF2,inactive: -0.312
18,GACCUGAUGUGGACCCAGATT against MIOX,inactive: 0.14
19,GAAAGUCUGUGAGAAGCUATT against KCTD8,inactive: 0.0212
20,CAAUCGGUACAGCUCCAAATT against CLCNKA,inactive: -0.398
21,GGCUGUACACUACAACGGUTT against EPB42,inactive: -0.294
22,GAACAACCUGGAGAAAUAUTT against ENDOG,inactive: -0.336

row,Sequence,median seed-adjusted z-score
1,GCCUUAAGGAUGAAGAUAATT against FOXR2,inactive: 0.593
2,GCAAAACGACGAUCAUUAATT against ARL6,inactive: 0.442
3,GCUGAGGUCUAAGGACAUATT against ARHGAP30,inactive: 0.0946
4,AGAUCGUUUCUACCCUCUUTT against ALG3,inactive: -0.446
5,GGAUCCCAGUGAUAUCUCUTT against DHDDS,inactive: 0.0122
6,GCAACUCAAAGGUGAUAAATT against CCNK,inactive: -0.717
7,AAACCAUCCGGAUCAUCUATT against DTX4,inactive: 0.409
8,CCUCCGAAGUGAAAAAGAUTT against FBL,inactive: -0.0592
9,GGAAUGGUUUGAACAACGATT against ZEB2,inactive: 0.854
10,CCACCAACCUCACAGAAGATT against MYH9,inactive: -0.517
11,GUACAAACCUCAUAAGGCATT against ZNF322B,inactive: 0.0433
12,GGAAAGCUUAUGUAGUAUATT against KCNH7,inactive: 0.0639
13,CCAACGACUUGAACUCCAUTT against ASCL1,inactive: 0.132
14,CGGAGAGGUCAGUAACUAATT against TPM1,inactive: 0.659
15,UACAUAUGCUGGACAGAAATT against SSU72,active: -1.64
16,GGAGGAUACAGAUCACGUUTT against SFRS10,inactive: -0.071
17,CGAAAGAACUCAUGAGAGATT against ZNF263,inactive: 0.397
18,GAUCUCAAAUCAGAGUUAATT against ANXA7,inactive: 0.671
19,CUGUUGCUCUUCAUACUGATT against MCM2,inactive: 0
20,GACCCUGACUUUUAUCAAUTT against TBC1D25,inactive: 0.0296
